Laboratory results published in PMC7819943, “Rice protein-binding microarrays: a tool to detect cis-acting elements near promoter regions in rice”.
This is one part of the list.

Protein sequences, listed by entry. Tags and fused reporters are not part of them.
UniProt Q0JBA9, entry or part of it: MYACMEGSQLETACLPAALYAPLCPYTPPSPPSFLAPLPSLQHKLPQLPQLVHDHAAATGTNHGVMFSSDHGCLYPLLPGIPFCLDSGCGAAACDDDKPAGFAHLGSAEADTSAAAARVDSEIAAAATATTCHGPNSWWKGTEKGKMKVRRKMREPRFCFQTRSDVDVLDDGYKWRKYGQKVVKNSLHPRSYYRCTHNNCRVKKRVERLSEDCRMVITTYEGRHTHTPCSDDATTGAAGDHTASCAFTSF

biological target: OsWRKY34 (Oryza sativa, UniProt Q0JBA9 1-250); test: protein-binding microarray (RPBM); PBS, 2% BSA, 51.3 ng/ul salmon testes DNA, 50 uM zinc acetate, 200 nM TF, 25 C, 1 h; high values mean tight binding; conditions: protein: recombinant; tags: N-terminal polyhistidine and DsRed monomer fusion (pET32a); label: CyDye5-dUTP incorporated in the synthesized complementary strand; 3' TTTTT single-stranded linker to array surface; dsDNA, one strand shown
How it was run: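 The binding signal for each feature is its fluorescence intensity in arbitrary units. An Axon 4000B scanner was used to read a custom Agilent array that had been made double-stranded with Cy5-dUTP primer extension, blocked with 2% BSA, incubated at 25 °C for 1 h with 200 nM protein in PBS, 2% BSA, salmon testes DNA and 50 µM zinc acetate, and washed. The protein was an N-terminal polyhistidine–DsRed transcription factor fusion from E. coli BL21-CodonPlus, purified on Ni–NTA.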

| Sequence | binding signal |
| --- | --- |
| CCATTTCCAGCAAGTCCACGGCTTTACGGCTGCTTGCTTTCGGAGTCACCTAGTGCAG | 8160 fluorescence intensity (a.u.) |
| AATCAGCCTCACACATTCTTGTGTTCGTAATTTACATGTTCGGAGTCACCTAGTGCAG | 8610 fluorescence intensity (a.u.) |
| TTTACCAAACCGTTTGAGATGGCCCTACTGTTACAATCGCCGGAGTCACCTAGTGCAG | 8200 fluorescence intensity (a.u.) |
| CACTACCAACGTCCACCGGCACCGCAACTTGCTGTCCTCTCGGAGTCACCTAGTGCAG | 11000 fluorescence intensity (a.u.) |
| ATGTGCTCGTGCTTGACTAATTCCGGTATACCACGTACTCCGGAGTCACCTAGTGCAG | 8050 fluorescence intensity (a.u.) |
| TTTATATACTGGAGTTGCGGATTTCCCTATCATGCAAGTTCGGAGTCACCTAGTGCAG | 8250 fluorescence intensity (a.u.) |
| AGGTTTGTGTGTGATTAGGGCTAGGTGGTGGGCAAAGGATCGGAGTCACCTAGTGCAG | 12700 fluorescence intensity (a.u.) |
| GTTTGAATTCACTTCAAATTCGGTTCATATTTGATACTTCCGGAGTCACCTAGTGCAG | 8040 fluorescence intensity (a.u.) |
| CTGATGATCCATTATCCCATCCCTCTCATTATTTATTTCCCGGAGTCACCTAGTGCAG | 8090 fluorescence intensity (a.u.) |
| GTGTTGACTGTAATTAATGTCTTTTTTTTATAGATGATGACGGAGTCACCTAGTGCAG | 8140 fluorescence intensity (a.u.) |
| AGCTCGTTTTTCCCAACATGGCCACGTCACTGCCGGCCAGCGGAGTCACCTAGTGCAG | 8070 fluorescence intensity (a.u.) |
| GCACACTTCCGTCACCTCCGTCGCCGGCGAAAATCCTCTTCGGAGTCACCTAGTGCAG | 11100 fluorescence intensity (a.u.) |
| TGTCTCACTCCGTACCTTGTTCGCCGCAACGGCGTTCTCCCGGAGTCACCTAGTGCAG | 8160 fluorescence intensity (a.u.) |
| AACCTTTCTATAGATTTTTTTTTTTTACAAAAACACATCACGGAGTCACCTAGTGCAG | 11700 fluorescence intensity (a.u.) |
| TCCCCGCGCCTACGTGTGCGCCATCGCCTACCGCATTCAGCGGAGTCACCTAGTGCAG | 8800 fluorescence intensity (a.u.) |
| TATTTTACGCTCGTATTCATGTCAGAAACATGTTTTTCTCCGGAGTCACCTAGTGCAG | 8320 fluorescence intensity (a.u.) |
| CAAACTGTCTTATCAGAAGGCTACTATTATTGTCTTCGTCCGGAGTCACCTAGTGCAG | 9340 fluorescence intensity (a.u.) |
| TATTAATCTTATGTACAGCCAGACCCTTTTTTTTTTCTTTCGGAGTCACCTAGTGCAG | 8760 fluorescence intensity (a.u.) |
| TTACCTGCCTTCACATTGCTGCCTCATACTCCTTTTTTTTCGGAGTCACCTAGTGCAG | 16300 fluorescence intensity (a.u.) |
| ATCTTCAACCTAACACAGCACCTAGCTAGTACTTGCATGCCGGAGTCACCTAGTGCAG | 9360 fluorescence intensity (a.u.) |
| TCGATTCCGATTGCGATTGAAGGTCTGTTCTTCTATTTATCGGAGTCACCTAGTGCAG | 8700 fluorescence intensity (a.u.) |
| TTCTCCCATTGTACGTATCTCTCAATTAATTTCGTCCTAACGGAGTCACCTAGTGCAG | 15300 fluorescence intensity (a.u.) |
| GCCTTTCCACATTCCTGGCTCTTCTACATCCCGCTTTTCACGGAGTCACCTAGTGCAG | 12000 fluorescence intensity (a.u.) |
| GCGTCTGTATTCTCCTCAGTTGGATACTTGGATGACTCCACGGAGTCACCTAGTGCAG | 8240 fluorescence intensity (a.u.) |
| GTAGTAACTGGGGATAGAAAAGGTTTATCTGTATTGTCTTCGGAGTCACCTAGTGCAG | 8600 fluorescence intensity (a.u.) |
| TACCTTTGGTGCACTTTGGACCACCTTCTTTAGCTGTATTCGGAGTCACCTAGTGCAG | 9220 fluorescence intensity (a.u.) |
| TTGTTGAATTGCTATATGTTTGATCAATTTGATCACGTTTCGGAGTCACCTAGTGCAG | 9060 fluorescence intensity (a.u.) |

Fetched one by one from above, 2 records:

| Sequence | binding signal |
| --- | --- |
| GTGTTGACTGTAATTAATGTCTTTTTTTTATAGATGATGACGGAGTCACCTAGTGCAG | 8140 fluorescence intensity (a.u.) |
| ATGTGCTCGTGCTTGACTAATTCCGGTATACCACGTACTCCGGAGTCACCTAGTGCAG | 8050 fluorescence intensity (a.u.) |

Additional entries.

| Sequence | binding signal |
| --- | --- |
| CCGCCATCGCCGCCGCCATCCGTTGACCATGGCTTCAGCCCGGAGTCACCTAGTGCAG | 18900 fluorescence intensity (a.u.) |
| CCATCGCCACCGCCCGCAGCTTCACCCCGCTGCTCCGACGCGGAGTCACCTAGTGCAG | 8480 fluorescence intensity (a.u.) |
| AATTTGTTTGGCTGAGTGGCTTTACATTCATTTCTCTATACGGAGTCACCTAGTGCAG | 9720 fluorescence intensity (a.u.) |
| TCCTACTGTAATTCGTTTCTCCTGTTTTTTCTTTCCGTTTCGGAGTCACCTAGTGCAG | 12700 fluorescence intensity (a.u.) |
| CATTTCTTCTCTAGCGTTACGCTGTCCCTTCTCTCGGTGACGGAGTCACCTAGTGCAG | 8410 fluorescence intensity (a.u.) |
| CCTTTTCAGCCCTAGCCCGGTCCGTTGACTCCTACCTCCTCGGAGTCACCTAGTGCAG | 12400 fluorescence intensity (a.u.) |
| CTGTTCAAATTGATATCCCTTAAGATTCGTGCTATGATTACGGAGTCACCTAGTGCAG | 8820 fluorescence intensity (a.u.) |
| GCTCGCTCTCGCCGCCTGCCGCTCGCTTCCACCACCCGTCCGGAGTCACCTAGTGCAG | 8380 fluorescence intensity (a.u.) |
| GGACAGACACGACCAACCAACGCACCCCACCCAACCCAACCGGAGTCACCTAGTGCAG | 8900 fluorescence intensity (a.u.) |
| TTGACTTGCTTCTTATGTGAGGCTGCATTACATGTTCTACCGGAGTCACCTAGTGCAG | 8710 fluorescence intensity (a.u.) |
| ACAAATCTACGTTTCATCTAGTTATATGTTGCTATATTTTCGGAGTCACCTAGTGCAG | 11100 fluorescence intensity (a.u.) |
| GTCCACCCCTACCCACCGTTGGATCCACCGCGGCAGCCGCCGGAGTCACCTAGTGCAG | 9180 fluorescence intensity (a.u.) |
| TGTGAGACGTGGGTTTGGTTTTGGCGCGGTTTGGGTCAAACGGAGTCACCTAGTGCAG | 8030 fluorescence intensity (a.u.) |
| TTGGGGATGACCTGGGTTGGGTGCCTTCAAATTAAATTCCCGGAGTCACCTAGTGCAG | 10000 fluorescence intensity (a.u.) |
| TTTATTTTTAGGGTTTGTGGTGGTCATATGAAGGGAGGAACGGAGTCACCTAGTGCAG | 8090 fluorescence intensity (a.u.) |
| TCTTTTTTTTATCATATTTCATATTTGACCTATTTTTTTTCGGAGTCACCTAGTGCAG | 10100 fluorescence intensity (a.u.) |
| ACCATATCTTTTGTTCTTATATATGATTATTAATATTTTCCGGAGTCACCTAGTGCAG | 8180 fluorescence intensity (a.u.) |
| ATCCTAATCCGTTTTGTCATCCTCCTATTGAGCGGTGGTCCGGAGTCACCTAGTGCAG | 8520 fluorescence intensity (a.u.) |
| GTCTCTCTACTCCCGGATATAAACCTTTCGCGCACGGCCACGGAGTCACCTAGTGCAG | 8980 fluorescence intensity (a.u.) |
| AATAAACGTTGACCAGTATGATGTCGCCACCGATATGGACCGGAGTCACCTAGTGCAG | 9520 fluorescence intensity (a.u.) |
| GTTACTGCACATTGACCATCGCGTTACTGCACCGTTCTGCCGGAGTCACCTAGTGCAG | 8940 fluorescence intensity (a.u.) |
| GGGTGTTGGTTGTGTGTGGTGGCTGCCAAATGGCTCGTGGCGGAGTCACCTAGTGCAG | 9220 fluorescence intensity (a.u.) |
| GTTGACTTTTTTTAAAATATGTTTGACCGTTCATATTATTCGGAGTCACCTAGTGCAG | 8770 fluorescence intensity (a.u.) |
| TATATATTTTTCCTATATTCTAAATTCCTATATTGTTTCTCGGAGTCACCTAGTGCAG | 8110 fluorescence intensity (a.u.) |
| CTGTATAAATGCGGCACAATCCCCTGTACTGATCAGCGATCGGAGTCACCTAGTGCAG | 8080 fluorescence intensity (a.u.) |
| GAGTGTGGCGGGTTCTATCTTTCTTTCCTTTTCTATTTGGCGGAGTCACCTAGTGCAG | 11800 fluorescence intensity (a.u.) |
| ATTCCGTTTCAATTTTTTGCAGCCTGTTGTGTTCCTCCATCGGAGTCACCTAGTGCAG | 9090 fluorescence intensity (a.u.) |

An excerpt from further up:

| Sequence | binding signal |
| --- | --- |
| GAGTGTGGCGGGTTCTATCTTTCTTTCCTTTTCTATTTGGCGGAGTCACCTAGTGCAG | 11800 fluorescence intensity (a.u.) |
| ATTCCGTTTCAATTTTTTGCAGCCTGTTGTGTTCCTCCATCGGAGTCACCTAGTGCAG | 9090 fluorescence intensity (a.u.) |
